{"source": "patent US20240082345A1", "about": "“PEPTIDE COMPOSITION FOR PREVENTION OR TREATMENT OF ALZHEIMER'S DISEASE” (priority 2020, published 2024)", "assay": "Artificial membrane permeation test simulating the blood-brain barrier (PAMPA-096), LC-MS / ESI-FT-ICR-MS", "assay_type": "in vitro ADME", "conditions": "FIG. 8C; controls temozolomide (TMZ) and PteleifilisinC", "experimental": "In order to confirm whether the peptide DD-S052 of the present invention passes through the blood-brain barrier (BBB), an artificial membrane permeation test simulating the blood-brain barrier was performed using a parallel artificial membrane permeability assay kit (PAMPA-096; BioAssay Systems).\nAnalysis conditions are shown in the following Table 5, and analysis was performed by liquid chromatography-mass spectrometry (LC-MS).\nQuantitative analysis was performed using electrospray ionization coupled to Fourier transform ion cyclotron resonance mass spectrometry (ESI-FT-ICR-MS), and the analysis conditions are shown in the following Table 6.\nThe intensity value of a peak corresponding to the test material was used according to the Log Pe function described in an existing document (Evaluation of the reproducibility of Parallel Artificial Membrane Permeation Assays PAMPA, Sigma Aldrich), and the value calculated by the Log Pe function was used to predict the degree of permeation by referencing an existing document (Brian. J et al. Predicting a Drug's Membrane Permeability: A Computational Model Validated With in Vitro Permeability Assay Data. J Phys Chem B. 2017 May 25;121(20):5228-5237).", "note": "The name of at least one read-out is uncertain. Non-standard residues stand in square brackets, D forms with d. Residues, ends and D or L forms follow the SMILES beside them."}
{"smiles": "CC(C)C[C@@H](NC(=O)[C@H](N)CCCCN)C(=O)N[C@H](CCCNC(=N)N)C(=O)N[C@@H](C(=O)N[C@H](CCCCN)C(=O)N[C@H](CC(C)C)C(=O)N[C@H](CCCNC(=N)N)C(=O)N[C@H](CCCNC(=N)N)C(=O)N[C@H](Cc1ccc(O)cc1)C(=O)N[C@H](CC(C)C)C(=O)N[C@H](CCCNC(=N)N)C(N)=O)C(C)C", "note": "[DD-S052, KLRVKLRRYLR-NH2 (AcOH)] (H-[dK][dL][dR][dV][dK][dL][dR][dR][dY][dL][dR]-NH2; N-terminus assumed)", "values": [{"measurement": "blood-brain barrier permeability, degree of permeation classified by log Pe range", "result": "median"}]}
